Laboratory results taken from publication PMC10827313.
The exact form of at least one protein or probe is not confirmed. Negatives hold for the conditions tested.

Tested on: PhDEF + PhGLO1
Test: EMSA
Conditions: EMSA with TnT wheat germ in vitro translation mixture, native acrylamide gel, as in Silva et al. 2016; pH and temperature not stated; protein translated in vitro; label: 5' Cy5 on forward primer; probe letters rebuilt from the primers and the genome

Sequence	binding result
TTCACAAACATCAAAGTTTAGCATATACAAGGTAGCTAAGCTACTTGCTCTATTCCCTAG (double strand) [AN1-bs2]	no binding
TTTATCCCAAAATAAGTGCCTCTTTCTATATTTGGTAACTCTTTAATTCAAAAATTTGTT (double strand) [AN1-bs1]	binds
